Values of other authors, collected in US10285981B2, “Compositions and methods for treating amyotrophic lateral sclerosis in responders” (KNOPP BIOSCIENCES LLC, priority 2013, dated 2019).
At least one compound was matched to its structure with a doubt left.

Tested on: subjects with ALS
Settings: lithium in combination with riluzole; cited from earlier work

## [Li] [lithium]
  operationally defined treatment failure event (decrease of ≥6 points on ALSFRS-R or death) vs placebo/riluzole: more subjects
